# Laboratory results published in PubChem BioAssay (NCATS).
# The chains behind the UniProt entries cited, without tags or fusion partners. Where a name states a change or a piece, a line headed by the entry shows the natural chain unless it says otherwise.
# UniProt Q03181: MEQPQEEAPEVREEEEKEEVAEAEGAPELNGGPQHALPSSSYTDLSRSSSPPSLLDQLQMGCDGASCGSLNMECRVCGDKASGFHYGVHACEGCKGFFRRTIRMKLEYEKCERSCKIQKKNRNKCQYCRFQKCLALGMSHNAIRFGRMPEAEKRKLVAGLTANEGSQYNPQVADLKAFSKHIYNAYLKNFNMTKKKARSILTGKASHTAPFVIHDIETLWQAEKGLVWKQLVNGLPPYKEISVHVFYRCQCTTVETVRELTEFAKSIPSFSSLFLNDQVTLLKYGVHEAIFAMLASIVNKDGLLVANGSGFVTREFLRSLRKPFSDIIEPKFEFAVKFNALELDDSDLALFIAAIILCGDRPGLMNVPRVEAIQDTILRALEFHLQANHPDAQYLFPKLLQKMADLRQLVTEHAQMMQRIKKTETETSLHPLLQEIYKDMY
# UniProt Q12809: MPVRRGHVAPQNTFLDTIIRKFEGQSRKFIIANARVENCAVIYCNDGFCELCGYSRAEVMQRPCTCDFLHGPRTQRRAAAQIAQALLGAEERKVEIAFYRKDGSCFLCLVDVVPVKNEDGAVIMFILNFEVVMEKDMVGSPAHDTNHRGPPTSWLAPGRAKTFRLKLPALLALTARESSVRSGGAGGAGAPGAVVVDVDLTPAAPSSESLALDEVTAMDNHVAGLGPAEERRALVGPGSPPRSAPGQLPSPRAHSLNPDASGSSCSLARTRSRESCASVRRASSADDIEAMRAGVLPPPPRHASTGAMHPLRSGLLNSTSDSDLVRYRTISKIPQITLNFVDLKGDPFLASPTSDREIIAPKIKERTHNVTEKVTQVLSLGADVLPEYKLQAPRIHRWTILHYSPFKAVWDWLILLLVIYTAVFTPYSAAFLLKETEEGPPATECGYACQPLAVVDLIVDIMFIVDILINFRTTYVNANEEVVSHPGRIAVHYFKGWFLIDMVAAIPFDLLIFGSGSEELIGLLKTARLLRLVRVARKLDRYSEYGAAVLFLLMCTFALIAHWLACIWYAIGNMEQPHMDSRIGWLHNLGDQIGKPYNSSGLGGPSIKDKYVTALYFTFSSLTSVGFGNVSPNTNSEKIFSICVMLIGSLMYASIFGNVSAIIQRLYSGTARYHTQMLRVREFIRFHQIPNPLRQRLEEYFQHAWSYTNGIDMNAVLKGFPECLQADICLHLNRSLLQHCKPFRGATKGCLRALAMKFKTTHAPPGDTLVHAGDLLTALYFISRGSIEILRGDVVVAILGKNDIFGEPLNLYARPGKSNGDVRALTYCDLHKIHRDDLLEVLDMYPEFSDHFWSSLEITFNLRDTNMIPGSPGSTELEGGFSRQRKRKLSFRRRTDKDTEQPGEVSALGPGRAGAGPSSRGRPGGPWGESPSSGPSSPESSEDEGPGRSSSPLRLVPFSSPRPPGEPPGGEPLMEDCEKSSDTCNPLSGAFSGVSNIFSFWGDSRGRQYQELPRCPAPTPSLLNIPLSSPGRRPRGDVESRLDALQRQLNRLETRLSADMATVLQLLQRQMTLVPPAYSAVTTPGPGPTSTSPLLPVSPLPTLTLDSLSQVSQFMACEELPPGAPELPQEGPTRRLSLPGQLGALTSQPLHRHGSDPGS
# UniProt P10828: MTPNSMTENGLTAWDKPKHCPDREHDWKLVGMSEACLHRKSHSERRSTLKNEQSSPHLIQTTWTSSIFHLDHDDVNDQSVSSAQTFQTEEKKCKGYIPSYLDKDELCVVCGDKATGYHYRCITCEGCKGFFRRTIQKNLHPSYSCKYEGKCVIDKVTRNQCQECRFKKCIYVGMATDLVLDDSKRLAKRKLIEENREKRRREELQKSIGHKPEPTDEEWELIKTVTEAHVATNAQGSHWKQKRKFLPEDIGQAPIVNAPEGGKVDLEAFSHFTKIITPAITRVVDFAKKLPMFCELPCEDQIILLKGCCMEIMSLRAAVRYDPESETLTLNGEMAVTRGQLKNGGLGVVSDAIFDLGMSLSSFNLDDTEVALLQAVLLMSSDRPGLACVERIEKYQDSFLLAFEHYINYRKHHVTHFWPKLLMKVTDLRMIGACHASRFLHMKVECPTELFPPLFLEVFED
# UniProt P19793: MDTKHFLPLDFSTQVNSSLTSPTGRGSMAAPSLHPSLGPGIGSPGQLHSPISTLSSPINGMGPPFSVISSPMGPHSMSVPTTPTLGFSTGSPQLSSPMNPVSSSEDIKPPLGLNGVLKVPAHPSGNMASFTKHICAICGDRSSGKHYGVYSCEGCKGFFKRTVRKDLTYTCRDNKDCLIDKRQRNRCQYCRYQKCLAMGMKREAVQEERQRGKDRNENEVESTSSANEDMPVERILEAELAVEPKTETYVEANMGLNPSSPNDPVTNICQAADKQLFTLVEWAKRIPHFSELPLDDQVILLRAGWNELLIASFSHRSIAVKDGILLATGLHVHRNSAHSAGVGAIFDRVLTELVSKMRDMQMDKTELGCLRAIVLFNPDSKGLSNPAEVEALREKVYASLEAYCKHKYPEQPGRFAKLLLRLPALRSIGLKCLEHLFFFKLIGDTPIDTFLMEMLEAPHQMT
# Where “and” joins values, the source holds several entries; their conditions need not be identical. Equal values may be shown once. This list was built around the results that the source calls inconclusive (neither active nor inactive); the mix of calls is not that of the screen. For some assays here: A potency beside an inconclusive call is a rough fit, not a confirmed value. For some assays here: “Side channel” marks fits to a control or component signal instead of the main read-out. Calls of active or inactive are those of the source. Unless noted, the call rests on the fitted dose curve; in most records, active means well fitted inhibition curve with a large enough effect; inconclusive means small, poorly fitted or top-dose-only effect; inactive means flat fitted curve, though single readings scatter.
# What was measured:
# [1] = target: Peroxisome proliferator-activated receptor delta (Homo sapiens) (UniProt Q03181); experiment: qHTS assay for small molecule antagonists of peroxisome proliferator-activated receptor delta signaling (AID 588535; active means well fitted inhibition curve with a large enough effect in the signal ratio, with a control signal flat, not every such curve was filed as active; inconclusive means small, poorly fitted or top-dose-only effect, or effect the other way, or a change in a side signal; inactive means no such curve, though single readings can be large or run the other way; the % refers to the signal ratio); conditions: HEK293T PPARd-UAS-bla, beta-lactamase FRET ratio, 18 h; at 76.7 µM (top of the series)
# Summary of the method: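 Fluorescence from CCF4-loaded GeneBLAzer PPAR-delta-UAS-bla HEK293T cells (2 hrs RT loading) quantified reporter inhibition after an 18 hr, 37 C compound exposure across a titration.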
# [2] = target: Peroxisome proliferator-activated receptor gamma (Homo sapiens) (UniProt P37231); experiment: qHTS assay for small molecule antagonists of peroxisome proliferator-activated receptor gamma signaling (AID 588537; active means well fitted inhibition curve with a large enough effect in the signal ratio, with a control signal flat, not every such curve was filed as active; inconclusive means small, poorly fitted or top-dose-only effect, or effect the other way, or a change in a side signal; the % refers to the signal ratio;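 further: reporter cells co-stimulated with 50 nM rosiglitazone agonist during compound treatment; % of control where 0% means no effect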); conditions: HEK293 PPARg-UAS-bla, beta-lactamase ratio, antagonist mode
# Summary of the method: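 Fluorescence at 460 and 530 nm (405 nm excitation) reported beta-lactamase cleavage of CCF4 after 2 h room-temperature loading. HEK293 reporter cells in 1% charcoal/dextran-treated FBS had received compound and rosiglitazone for 16 h.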
# [3] = target: Peroxisome proliferator-activated receptor gamma (Homo sapiens) (UniProt P37231); experiment: qHTS assay for small molecule agonists of peroxisome proliferator-activated receptor gamma signaling (AID 588536; active means well fitted curve in the direction sought with a large enough effect in the signal ratio, with a control signal flat, not every such curve was filed as active; inconclusive means small, poorly fitted or top-dose-only effect, or effect the other way, or a change in a side signal; inactive means no such curve, though single readings can be large or run the other way; the % refers to the signal ratio;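 further: 0% = DMSO basal wells and 100% = rosiglitazone at 2 µM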); conditions: HEK293 PPARg-UAS-bla, beta-lactamase ratio, 16 h; at 76.7 µM (top of the series); percent of rosiglitazone response, DMSO as zero
# Summary of the method: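 Beta-lactamase reporter read-out: CCF4 fluorescence (ex 405, em 460/530 nm) after 2 h at RT. HEK293 GeneBLAzer cells were treated for 16 h at 37 C. Hill fits gave EC50 and efficacy versus 2 uM rosiglitazone (100%) and DMSO (0%).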
# [4] = target: Voltage-gated inwardly rectifying potassium channel KCNH2 (Homo sapiens) (UniProt Q12809); experiment: qHTS Assay for Small Molecule Inhibitors of the Human hERG Channel Activity (AID 588834); conditions: U2OS BacMam hERG, FluxOR thallium flux fluorescence; series mostly up to 46.1 µM;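 further: lower thallium flux fluorescence means stronger hERG block; nearly all actives have a fitted effect of over 50% in size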; further: potency means the concentration at half of the fitted maximal effect; on activity change, negative = inhibition: top concentration of the series differs between compounds; on the % scale 0 is the no-effect control and ±100 the full control effect
# Summary of the method: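 In hERG-transduced U2OS cells, dye-loaded for 1 hr at room temperature in dark, test compounds incubated 10 min at 37 °C before thallium stimulation. AC50 values derived by Hill modelling of concentration-response.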
# [5] = target: Vitamin D3 receptor (Homo sapiens) (UniProt P11473); experiment: qHTS assay for small molecule agonists of vitamin D receptor signaling (AID 588543; calls by dose curve; further: potency means the concentration at half of the fitted maximal effect;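 on activation: 0% = DMSO basal and 100% = reference agonist control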); conditions: HEK293T VDR-UAS-bla, beta-lactamase ratio, 16 h; activation: at 76.8 µM (top of the series)
# Summary of the method: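 GeneBLAzer VDR-UAS-bla HEK293T cells in 2% charcoal-stripped FBS medium were dosed with compound titrations for 16 h at 37 °C; CCF4 β-lactamase readout (405 nm ex, 460/530 nm em). EC50 and efficacy from Hill fits, normalized to 50 nM calcitriol (100%) and DMSO (0%).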
# [6] = target: Thyroid hormone receptor beta (Homo sapiens) (UniProt P10828); experiment: qHTS assay for small molecule antagonists of thyroid hormone receptor beta signaling (AID 588547; active means well fitted inhibition curve with a large enough effect in the signal ratio, with a control signal flat, not every such curve was filed as active; inconclusive means small, poorly fitted or top-dose-only effect, or effect the other way, or a change in a side signal; the % refers to the signal ratio; further: potency means the concentration at half of the fitted maximal effect;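 on activity change % (negative = inhibition): cells stimulated with 0.4 nM T3 agonist during compound exposure; on the % scale 0 is the no-effect control and ±100 the full control effect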); conditions: TR-UAS-bla HEK293, beta-lactamase ratio, antagonist mode, 18 h
# Summary of the method: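 TR-UAS-bla GripTite HEK293 cells in 2% charcoal/dextran FBS medium; compounds 0.59 nM to 92 uM with T3 at 0.4nM final, 18 h at 37 C. Beta-lactamase read by CCF4 fluorescence (460/530 nm); Hill fits gave IC50 and efficacy.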
# [7] = target: Retinoic acid receptor RXR-alpha (Homo sapiens) (UniProt P19793); experiment: qHTS assay for small molecule agonists of retinoid X receptor alpha signaling (AID 588544; calls by dose curve; further: potency means the concentration at half of the fitted maximal effect;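 on activation: 0% = DMSO basal wells and 100% = reference agonist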); conditions: HEK293T RXRa-UAS-bla, beta-lactamase reporter, 18 h; activation: at 76.7 µM (top of the series)
# [8] = target: Retinoic acid receptor RXR-alpha (Homo sapiens) (UniProt P19793); experiment: qHTS assay for small molecule antagonists of retinoid X receptor alpha signaling (AID 588546; active means well fitted inhibition curve with a large enough effect in the signal ratio, with a control signal flat, not every such curve was filed as active; inconclusive means small, poorly fitted or top-dose-only effect, or effect the other way, or a change in a side signal; inactive means no such curve, though single readings can be large or run the other way; the % refers to the signal ratio; further: potency means the concentration at half of the fitted maximal effect;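 on max response: cells stimulated with 9-cis-retinoic acid as agonist; on the % scale 0 is the no-effect control and ±100 the full control effect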); conditions: HEK293T RXRa-UAS-bla, beta-lactamase ratio, antagonist mode
# Summary of the method: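 Beta-lactamase reporter inhibition, read as CCF4 fluorescence ratio (ex 405, em 460/530 nm) after 2 h at RT. HEK293T UAS-bla cells, 2500/well, were stimulated with 9-cis-RA at 500 or 100 nM final alongside test compound for 18 h at 37 C.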
# [9] = activity, negative = inhibition: at 76.8 µM (top of the series)
structure (smiles),measurement,setting,value
Cc1cn([C@H]2C[C@H](N=[N+]=[N-])[C@@H](CO)O2)c(=O)[nH]c1=O,"activity change, negative = inhibition",[1],inactive: -41.7%
same,"activity, negative = inhibition",[2]; at 76.8 µM (top of the series),inactive: 10.9%
CC1=NN(c2ccccc2)C(=O)C1,"activity change, negative = inhibition",[1],inactive: 9.54%
COc1ccc2[nH]cc(CCNC(C)=O)c2c1,activation,[3],inactive: -1.76% and inactive: -5.86%
same,"activity, negative = inhibition",[2]; at 76.8 µM (top of the series),inactive: -2.05% and inactive: 0.972%
CC(C)(Sc1ccc(CCN(CCCCC2CCCCC2)C(=O)NC2CCCCC2)cc1)C(=O)O,Potency,[4],inactive
C[C@]12C=CC(=O)C=C1CC[C@@H]1[C@@H]2C(=O)C[C@@]2(C)[C@H]1CC[C@]2(O)C(=O)CO,"activity, negative = inhibition",[2]; [9],inconclusive: 1.21%
NC(N)=NC(=O)c1nc(Cl)c(N)nc1N,"activity, negative = inhibition",[2]; [9],inconclusive: 7.28%
CC1=CC(=O)c2ccccc2C1=O,Potency,[4],"inconclusive: 17.8 µM [inhibitor, partial curve, poor fit]"
COc1ccc2c(c1)c(CC(=O)O)c(C)n2C(=O)c1ccc(Cl)cc1,Potency,[5],"inconclusive: 7.08 µM [side channel, rising, full curve, poor fit]"
same,activation,[5],inconclusive: -12.5%
same,Potency,[6],"inconclusive: 50.1 µM [fluorescent, side channel, partial curve, poor fit] and inconclusive: 12.6 µM [activator, partial curve, poor fit]"
NCCCC(N)(C(=O)O)C(F)F (stereo not drawn),Potency,[4],"inconclusive: 14.1 µM [inhibitor, single point]"
CC(=O)NC[C@H]1CN(c2ccc(N3CCOCC3)c(F)c2)C(=O)O1,Potency,[4],"inconclusive: 35.5 µM [inhibitor, single point]"
COc1cc2c(cc1OC)CC(=O)N(CCCN(C)C[C@H]1Cc3cc(OC)c(OC)cc31)CC2,Potency,[4],"inconclusive: 2.51 µM [inhibitor, full curve]"
CCOC(=O)c1ccc(C#Cc2ccc3c(c2)C(C)(C)CCS3)nc1,Potency,[4],active: 8.91 µM
Clc1ccccc1CN1CCc2sccc2C1,Potency,[4],active: 14.1 µM
O=c1[nH]cnc2[nH]ncc12,Potency,[2]; [9],inactive
same,Potency,[5],inactive
same,Potency,[7],inactive
same,activity change % (negative = inhibition),[6],inactive: 5.35%
Cc1cccc(N(C)C(=S)Oc2ccc3ccccc3c2)c1,Potency,[4],"inconclusive: 3.16 µM [inhibitor, partial curve, poor fit]"
Cc1c(C(=O)NN2CCCCC2)nn(-c2ccc(Cl)cc2Cl)c1-c1ccc(Cl)cc1,Potency,[4],active: 2.82 µM
COc1cc(NCc2ccc3nc(N)nc(N)c3c2C)cc(OC)c1OC,Potency,[4],"inconclusive: 35.5 µM [inhibitor, single point]"
CCOc1cc(N)c(Cl)cc1C(=O)NCC1CN(Cc2ccc(F)cc2)CCO1 (stereo not drawn),Potency,[4],"inconclusive: 15.8 µM [inhibitor, partial curve, poor fit]"
Nc1c2c(nc3ccccc13)CCCC2,"activity, negative = inhibition",[2]; [9],inconclusive: 1.94%
same,Potency,[7],"inconclusive: 15.8 µM [fluorescent, side channel, partial curve, poor fit]"
same,max response,[8],inactive: -6.99%
same,activity change % (negative = inhibition),[6],inactive: -14.9%
CCOC(=O)[C@H](CCc1ccccc1)N[C@H]1CCc2ccccc2N(CC(=O)O)C1=O,Potency,[4],"inconclusive: 35.5 µM [inhibitor, single point]"
S=P(N1CC1)(N1CC1)N1CC1,Potency,[7],inactive
same,max response,[8],inconclusive: -38.7%
O=C(c1ccc(F)cc1)C1CCN(CCn2c(=O)[nH]c3ccccc3c2=O)CC1,Potency,[4],active: 3.55 µM and active: 562 nM
Nc1ncn([C@H]2C[C@H](O)[C@@H](CO)O2)c(=O)n1,Potency,[4],"inconclusive: 35.5 µM [inhibitor, single point]"
Cn1c(=O)c2c(ncn2C)n(C)c1=O,"activity, negative = inhibition",[2]; [9],inconclusive: -6.31%
O=c1c(O)c(-c2ccc(O)cc2O)oc2cc(O)cc(O)c12,Potency,[5],inactive
same,Potency,[7],"inconclusive: 50.1 µM [falling, single point]"
same,Potency,[8],"inconclusive: 28.2 µM [side channel, rising, partial curve]"

# Part of the list above, with bars between the fields.
structure (smiles) | measurement | setting | value
Cn1c(=O)c2c(ncn2C)n(C)c1=O | activity, negative = inhibition | [2]; [9] | inconclusive: -6.31%
O=c1c(O)c(-c2ccc(O)cc2O)oc2cc(O)cc(O)c12 | Potency | [5] | inactive
